According to US6420362B1, “Azines containing the 5,6-di-hydro-(1,4,2) dioxazine-3-yl group and the use thereof as fungicides” (priority 1997, dated 2002):
Some of these results come from one statement about several compounds together.

System: Plasmopara viticola
Assay: Plasmopara test (vine)/protective
Assay type: in vivo
Settings: protective spray, 100 g/hectare, evaluation 6 days after inoculation

In the case of CON=C(C1=NOCCO1)c1ccccc1C=NN=C(C)c1cccc(C(F)(F)F)c1 [Example 1, (5,6-dihydro-[1,4,2]dioxazin-3-yl)-(2-{[1-(3-trifluoromethylphenyl)-ethylidene]-hydrazonomethyl}-phenyl)-methanone O-methyl oxime], the “Degree of action in %” value is reported as “up to 100%”.
